# PubChem BioAssay AID504791 – Drosophila RNAi Screening Center, 2011
# Screen: 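Genes whose knock-down strengthens or weakens small-RNA reporter silencing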 (primary screen)
# Cells: Drosophila S2-derived reporter cells
# Knock-down reagent: long dsRNA against Drosophila genes, about 150-250 ng dsRNA per well (siRNA assay); about 80-120 ng (miRNA assay)
# Duration: about 5 days (siRNA assay); about 4 days (miRNA assay)
# Treatment: copper sulfate induction of reporters: 25 µM (siRNA assay); 200 mM stated (miRNA assay), 1-2 days before reading
# Measured: 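Dual luciferase assay: Renilla to firefly signal ratio in each well, scaled to the mean ratio of its plate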
# Direction: siRNA reporter hit score: higher = 3 marks a strong hit with raised ratio; -3 a strong hit with lowered ratio
# Call rule: 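a well was a first-pass pick when its plate-scaled ratio rose above 1.5 (siRNA assay) or 1.6 (miRNA assay), or dropped below 0.6; a gene counted only if two separate dsRNAs agreed on retest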
# The screen tested about 23,000 reagents; shown is a random part of those with a known target gene and a result. Over the whole deposit, 199 (0.86%) are marked active. 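Plate-scaled ratios behind the calls are not deposited; printed light signals are raw; many rows marked increased or decreased are still called inactive.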 A number with no mark means an inactive call. A plus sign joins genes that one reagent is predicted to hit. Further read-outs or replicates are left out here. Reagent sequences are not shown.
target,dsRNA,siRNA reporter hit score,stable siRNA reporter change,"stable assay Renilla, run 1 (luminescence)"
Slob,DRSC02296,,,7634
CG6749,DRSC10704,,,5244
TrpA1,DRSC10544,,,5739
scramb1,DRSC09724,,,6380
scramb1,DRSC10667,,,6615
scramb1,DRSC10668,,,6835
CG8858,DRSC07290,,,6998
PolA1,DRSC16640,,,13792
CG3323,DRSC18303,,,5883
CG14673 (retired record),DRSC12259,,,8031
CG9497,DRSC03234,,,13939
osi,DRSC02931,,,6663
yellow-g,DRSC08575,,,6526
CG13126,DRSC02222,,,7639
MED22,DRSC18175,,,4356
stum,DRSC04268,,,8207
stum,DRSC04270,,,8074
Gp93,DRSC15827,,,6980
CG9519,DRSC20195,,,10390
CG4297,DRSC00651,,,8302
Bug22,DRSC02842,,,8470
ro,DRSC17046,,,4607
Tbh,DRSC18723,,,5676
CG33158,DRSC09708,,,5032
CG33158,DRSC09709,,,8079
CG33158,DRSC10438,,,8410
CG10738,DRSC09792,,,5651
rib,DRSC07021,,,8751
CG34227,DRSC06788,,,6119
CG34227,DRSC07034,,,5943
CG42284,DRSC22094,,,8838
CG42284,DRSC22342,,,9494
FucT6,DRSC19848,,,8275
CG9173,DRSC08635,,,5999
CG8028,DRSC20075,,,5560
Pxn,DRSC08685,,,3824
CG2225,DRSC03722,,,10511
CG2225,DRSC03723,,,6928
RpL34b,DRSC16475,,,7836
Naxe,DRSC18251,,,5399
CG13926,DRSC08395,,,6188
RNaseZ,DRSC06845,,,7882
c(3)G,DRSC15245,,,10038
Regnase-1,DRSC14278,,,8464
CG8958,DRSC20134,,,3915
cag,DRSC07587,,,6998
CG12868,DRSC06207,,,7879
MED4,DRSC11014,-3,,5483
Csl4,DRSC02944,,,7238
Csl4,DRSC22664,,,5602
meep,DRSC07948,,,5619
dpr20,DRSC08265,,,10517
CG4438,DRSC02746,,,7528
CG7069,DRSC16188,,,8086
CG4935,DRSC01924,,,8285
CG31781 (retired record),DRSC02431,,,55663
CG31781 (retired record),DRSC02432,,,7958
CG5946,DRSC10560,,,7451
Or63a,DRSC08681,,,6355
DppIII,DRSC16241,,,6732
ATPsynB,DRSC09659,,,7511
Uxs,DRSC10941,,,6479
CG33137,DRSC22131,,,10039
Epg5,DRSC14778,,,7823
CG1113,DRSC12163,,,5679
CG11257,DRSC06068,,,6639
CG15386 + CG42371,DRSC00400,,,7310
Sgs5,DRSC16862,,,7214
GlnRS,DRSC14140,,,7448
CG10621,DRSC02078,,,6807
BthD,DRSC19395,,,5287
CG11811,DRSC09862,,,5724
CG15473,DRSC18056,,,6280
Edg91,DRSC16657,,,6236
slo,DRSC17057,,,9054
CG9294,DRSC04537,,,6547
Rh4 + sina,DRSC11396,,,7807
Gcn5,DRSC11248,,,8953
CG1688,DRSC05934,,,6739
CG1688,DRSC23207,,reporter ratio raised past the hit cutoff,1860
ND-42,DRSC16754,,,6779
CG3744,DRSC15511,,,6035
EbpIII,DRSC04638,,,10009
